The results in this text go back to publication PMC12230082.

Results are given in words; binding and its absence hold for the method and conditions named. In cells and extracts the contact can be indirect. Some binding calls cover weakened binding; strength is not graded here.

The experiment has as its target BZIP63 (UniProt B9DGI8). Put plainly: split reporter; BiFC: nYFP and cYFP fusions transiently co-transformed into N. benthamiana leaves; YFP fluorescence seen 72 h after injection; in triplicate.

B1: BZIP63 (protein, UniProt B9DGI8 1-314)
chain: MEKVFSDEEISGNHHWSVNGMTSLNRSASEWAFNRFIQESSAAADDGESTTACGVSVSSPPNVPVDSEEYRAFLKSKLNLACAAVAMKRGTFIKPQDTSGRSDNGGANESEQASLASSKATPMMSSAITSGSELSGDEEEADGETNMNPTNVKRVKRMLSNRESARRSRRRKQAHLSELETQVSQLRVENSKLMKGLTDVTQTFNDASVENRVLKANIETLRAKVKMAEETVKRLTGFNPMFHNMPQIVSTVSLPSETSNSPDTTSSQVTTPEIISSGNKGKALIGCKMNRTASMRRVESLEHLQKRIRSVGDQ
B1: the binding entry is “binds”.
